Library screen at single concentrations

Protein sequences, listed by entry. Tags and fused reporters are not part of them.
UniProt P9WNZ1, whole entry: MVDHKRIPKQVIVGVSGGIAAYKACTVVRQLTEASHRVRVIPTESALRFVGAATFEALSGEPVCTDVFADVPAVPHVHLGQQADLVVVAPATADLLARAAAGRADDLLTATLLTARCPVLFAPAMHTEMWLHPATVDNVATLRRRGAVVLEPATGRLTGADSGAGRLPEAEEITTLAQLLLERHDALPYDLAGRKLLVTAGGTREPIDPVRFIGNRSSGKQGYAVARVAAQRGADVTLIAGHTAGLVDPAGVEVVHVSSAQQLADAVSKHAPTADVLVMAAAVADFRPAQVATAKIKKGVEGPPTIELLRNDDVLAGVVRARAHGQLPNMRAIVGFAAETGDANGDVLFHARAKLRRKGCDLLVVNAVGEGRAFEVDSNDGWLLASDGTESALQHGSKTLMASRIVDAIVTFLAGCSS
UniProt P9WFT3, whole entry: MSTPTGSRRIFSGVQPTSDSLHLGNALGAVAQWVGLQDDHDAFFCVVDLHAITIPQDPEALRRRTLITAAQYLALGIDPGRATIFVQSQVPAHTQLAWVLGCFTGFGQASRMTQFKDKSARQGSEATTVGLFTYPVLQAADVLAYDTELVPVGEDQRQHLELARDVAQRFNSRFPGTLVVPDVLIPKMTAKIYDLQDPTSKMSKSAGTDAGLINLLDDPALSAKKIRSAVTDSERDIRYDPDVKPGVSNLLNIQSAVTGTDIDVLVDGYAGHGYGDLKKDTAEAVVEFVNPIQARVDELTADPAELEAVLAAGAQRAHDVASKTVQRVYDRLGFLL
UniProt I6X8D2, whole entry: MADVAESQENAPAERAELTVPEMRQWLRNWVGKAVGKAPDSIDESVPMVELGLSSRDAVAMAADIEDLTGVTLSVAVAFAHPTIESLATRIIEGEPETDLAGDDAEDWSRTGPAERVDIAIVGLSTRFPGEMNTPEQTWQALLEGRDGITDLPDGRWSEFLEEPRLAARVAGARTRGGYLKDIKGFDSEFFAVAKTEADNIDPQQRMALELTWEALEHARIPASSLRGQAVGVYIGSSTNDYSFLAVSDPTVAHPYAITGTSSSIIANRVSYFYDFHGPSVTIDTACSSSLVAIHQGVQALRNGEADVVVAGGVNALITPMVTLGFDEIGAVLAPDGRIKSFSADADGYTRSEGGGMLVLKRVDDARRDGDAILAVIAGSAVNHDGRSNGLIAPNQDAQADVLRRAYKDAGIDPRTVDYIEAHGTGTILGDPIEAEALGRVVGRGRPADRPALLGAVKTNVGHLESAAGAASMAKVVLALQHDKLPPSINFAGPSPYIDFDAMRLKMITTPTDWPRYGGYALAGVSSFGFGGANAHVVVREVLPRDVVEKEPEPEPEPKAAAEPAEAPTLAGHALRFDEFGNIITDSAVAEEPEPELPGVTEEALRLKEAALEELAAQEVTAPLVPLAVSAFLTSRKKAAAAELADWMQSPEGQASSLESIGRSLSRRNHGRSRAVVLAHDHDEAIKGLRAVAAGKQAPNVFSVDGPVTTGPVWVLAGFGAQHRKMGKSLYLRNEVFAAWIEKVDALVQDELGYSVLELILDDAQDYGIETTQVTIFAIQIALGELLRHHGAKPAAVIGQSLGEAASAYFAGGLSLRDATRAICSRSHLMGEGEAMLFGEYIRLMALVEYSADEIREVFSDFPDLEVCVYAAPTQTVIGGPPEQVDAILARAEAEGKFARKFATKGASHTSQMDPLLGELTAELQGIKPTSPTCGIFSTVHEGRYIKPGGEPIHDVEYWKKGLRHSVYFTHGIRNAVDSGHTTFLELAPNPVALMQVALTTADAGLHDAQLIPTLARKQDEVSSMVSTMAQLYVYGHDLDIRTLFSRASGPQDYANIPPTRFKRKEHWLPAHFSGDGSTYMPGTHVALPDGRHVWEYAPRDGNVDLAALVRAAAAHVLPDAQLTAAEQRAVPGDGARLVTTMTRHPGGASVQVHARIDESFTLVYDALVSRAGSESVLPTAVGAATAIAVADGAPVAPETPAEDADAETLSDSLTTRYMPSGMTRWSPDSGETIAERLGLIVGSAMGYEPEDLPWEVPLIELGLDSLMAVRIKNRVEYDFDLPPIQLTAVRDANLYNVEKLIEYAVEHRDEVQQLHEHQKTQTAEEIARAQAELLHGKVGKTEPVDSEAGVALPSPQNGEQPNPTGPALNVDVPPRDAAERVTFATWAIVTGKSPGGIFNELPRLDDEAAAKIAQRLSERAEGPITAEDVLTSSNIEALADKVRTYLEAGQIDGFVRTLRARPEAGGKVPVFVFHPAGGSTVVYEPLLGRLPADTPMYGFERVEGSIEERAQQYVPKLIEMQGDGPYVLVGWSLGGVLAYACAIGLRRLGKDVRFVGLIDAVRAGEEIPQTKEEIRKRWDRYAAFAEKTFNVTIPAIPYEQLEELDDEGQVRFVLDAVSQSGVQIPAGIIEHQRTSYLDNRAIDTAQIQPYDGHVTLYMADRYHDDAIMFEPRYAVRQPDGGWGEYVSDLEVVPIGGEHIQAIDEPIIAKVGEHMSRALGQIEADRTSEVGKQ

Measurements from “University of Dundee, Small-Polar-MMV Screening Library” (2021), ChEMBL document CHEMBL3988442.

CoaBC: 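Enzyme assay of CoaBC with a phosphate dye (Biomol Green) read at 650 nm. Target: Coenzyme A biosynthesis protein CoaBC, Mycobacterium tuberculosis (UniProt P9WNZ1). Tested at 30 µM. Direction is inferred from only a few compounds that gave an IC50; most scored high, so higher reads as stronger inhibition. Most strong results did not repeat in a second test. Of about 67,000 compounds tested this way, about 40 (0.06%) reached 50% or more in at least one test.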
MtTrpRS: 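Tryptophan-tRNA ligase, Mycobacterium tuberculosis (UniProt P9WFT3). Enzyme assay of tryptophanyl-tRNA synthetase; the read-out is not stated. Tested at 10 µM. Direction is not recorded; retested compounds ran higher, which suggests that high means inhibition. Size under these conditions: about 65,000 compounds, about 64 of them at 50% or above in at least one test.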
Pks13 thioesterase: 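Polyketide synthase Pks13, Mycobacterium tuberculosis (UniProt I6X8D2). Enzyme assay of the thioesterase domain of polyketide synthase 13; the read-out is not stated. Compounds at 30 µM. The record gives no direction; the compounds picked for IC50 retests had high values, so higher reads as stronger inhibition. About 67,000 compounds were tested under these conditions; 0.46% (about 300) showed 50% or more at least once.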

The filed quantity is “Percent Effect” (%). The record does not define 0% and 100%; most values in the screen are far below 50% and negative numbers occur (in some assays of this library far below -100). Compounds were drawn at random from those tested, without regard to their results. Two or more numbers in one place are separate tests of the same structure; such repeats can differ widely. A dash means the value is not listed here; it may have been measured.

SMILES,CoaBC,MtTrpRS,Pks13 thioesterase
Cc1cc(CN2CC[C@H]3[C@H]2CCN3C)oc1C,3.308%,-3.476%,-24.96%
COCc1cccc(CNCc2c(C)nn(C)c2N(C)C)c1,0.8304%,-1.643%,-23.89%
CCn1nc(C)c(CN(Cc2ccccn2)Cc2ccccc2Cl)c1C,2.67%,-0.6342%,6.198%
CC(C)n1cnnc1Cn1ccc2ncccc2c1=O,-2.427%,-5.176%,-5.704%
Cc1cnn(CCC(=O)NCc2ccc(N(C)C)c(C)c2)c1,0.3636%,-4.444%,4.002%
Cc1ccsc1CN1CCC2(CC1)CC(OCc1cccnc1)CO2 (stereo not drawn),-8.668%,-3.735%,-35.05%
O=C(CCNCC(F)(F)F)N1CCC(Nc2cccnn2)CC1,-1.169%,-0.8772%,-17.1%
c1csc(CN2C[C@H](OCC3CC3)[C@H]3COC[C@H]32)n1,1.238%,-,-
O=C1c2cc(Br)cc(Br)c2OCC1(CN1CCCC1)CN1CCCC1,4.294%,-,14.51%
CC(C)n1nc2c(cc1=O)CN(c1nc3ccccc3s1)CC2,4.637%,-0.6054%,-17.6%
NC(=O)CS(=O)(=O)Cc1cc(Cl)c2c(c1)OCCCO2,-1.575%,17.99%,-11.34%
CN(C)S(=O)(=O)N1CCCC(c2cccc(Cc3ccc(F)cc3)n2)C1 (stereo not drawn),-0.4854%,-,-70.06%
NCC(=O)N1CCCC(c2ccnc(Nc3cnccn3)n2)C1 (stereo not drawn),-0.2421%,-,-3.356%
COc1cccc(OCC2CCCN(C(=O)Cc3cccc(O)c3)C2)c1 (stereo not drawn),-4.146%,-11.89%,-44.08%
Cc1cccnc1NC(=O)c1ccc(F)c(S(=O)(=O)N2CCC2)c1,6.497%,2.965%,-37.83%
O=C(NCCOc1ccccc1)Nc1cc(C(F)(F)F)c[nH]c1=O,1.619%,0.387%,-11.77%
CCOc1ncnc2c1CCN(Cc1csc(C)n1)CC2,-2.538%,7.325%,-29.32%
Cc1nc(O)cc(CCNc2nc(N(C)C)nc(C)c2C)n1,-,5.882%,13.17%
CC(O)CN1CCN(Cc2coc(-c3cccc(Cl)c3)n2)CC1 (stereo not drawn),5.767%,-4.688%,1.899%
O=C(c1cscn1)N1CCC2(COc3ncccc3S(=O)(=O)N2)C1 (stereo not drawn),-2.105%,1.124%,-10.17%
CN(C)C(=O)CCCS(=O)(=O)Cc1cc(Cl)c2c(c1)OCO2,0.3831%,-2.274%,-3.387%
CCC(O)CN1CCN(C(=O)Cc2ccccc2Cl)CC1 (stereo not drawn),-3.069%,-6.032%,-14.98%
CCOC[C@@H]1CC[C@H]2[C@H](CCN2Cc2c(C)noc2C)O1,-1.935%,-4.368%,-15.73%
Cc1ccc(C(=O)NCc2ccc(N(C)C)cc2)cn1,0%,1.201%,-12.89%
O=C1NCCN1C1CCN(Cc2nc(-c3ccoc3)no2)CC1,2.651%,-1.359%,-9.091%
O=C(NCC1CCS(=O)(=O)C1)c1sccc1-c1ccc(F)cc1 (stereo not drawn),6.608%,0.8382%,-6.003%
CN(C)[C@@H]1CN(Cc2ccccc2O)C[C@H]1c1cn(C)c2ccccc12,0.9569%,-5.729%,-7.643%
Cc1ccccc1Cc1nc(CSc2nnc(N)n2C)no1,-1.106%,-0.08211%,-5.996%
O=C(c1ccsc1)N1CCC2(CCN(Cc3ccccn3)C2=O)C1 (stereo not drawn),9.208%,9.128%,-5.656%
Cc1nc[nH]c1-c1nccn1CCN1CCCOC1=O,4.612%,-4.608%,-2.123%
CCn1cnnc1CNC(=O)c1cc(Cl)ccc1OC,-1.567%,-3.801%,-7.497%
c1ccn(Cc2noc3c2CN(Cc2ccsc2)CC3)c1,10.04%,1.464%,-38.99%
CC(C)NC1CCc2c(ccc(=O)n2CC2CC2)C1 (stereo not drawn),1.112%,-0.6823%,-23.76%
CN(CCC#N)C(=O)CN1CCCC1c1cccs1 (stereo not drawn),-3.975%,4.129%,-14.06%
Cc1ccc(C(=O)Nc2ccccc2F)n1C,-0.1215%,-20.1%,-23.88%
CCn1cc(CN2CCN(C)C3(CCC(=O)N(CC4CC4)CC3)C2)cn1 (stereo not drawn),-0.6061%,1.077%,-5.156%
CCCN1CCCN(C(=O)Nc2ccc3c(c2)OCO3)CC1,-2.981%,4.459%,-21.72%
COc1cc(-c2nc(C3CC3)nn2-c2ccnc(C)c2)nc(OC)n1,5.804%,-8.566%,-36.97%
CN(C)CCO[C@@H]1CC[C@H]2[C@H]1OCCN2C(=O)c1ccncc1,8.763% & 48.64%,-1.18%,-12.11%
CCc1nc(C)c([C@H]2CN(C)C[C@@H]2C(=O)NC(C)(C)c2ccccc2)[nH]1,-15.58%,-0.4617%,-39.86%
Cc1nc(CN(C)C2CCN(CCc3cccs3)C2)no1 (stereo not drawn),-8.311%,14.03%,-35.8%
CCN(CC)Cc1cn2c(n1)CN(Cc1c(C)noc1C)CC2,7.152%,-,5.609%
Cc1nnc(C[C@@H]2COC[C@H]3CN(C(=O)c4ccco4)C[C@@H]23)o1,-,-1.841%,-27.57%
CCc1nc(CC)n(CC(=O)NCc2ccccc2C)n1,5.34%,-0.000006%,-2.665%
O=C(NC1CCc2[nH]c(=O)ccc2C1)C1CCOCC1 (stereo not drawn),2.748%,7.822%,-

Some entries from above, unchanged:

SMILES,CoaBC,MtTrpRS,Pks13 thioesterase
Cc1ccc(C(=O)Nc2ccccc2F)n1C,-0.1215%,-20.1%,-23.88%
O=C(NCCOc1ccccc1)Nc1cc(C(F)(F)F)c[nH]c1=O,1.619%,0.387%,-11.77%
c1csc(CN2C[C@H](OCC3CC3)[C@H]3COC[C@H]32)n1,1.238%,-,-
COCc1cccc(CNCc2c(C)nn(C)c2N(C)C)c1,0.8304%,-1.643%,-23.89%